Laboratory results: patent publication US20090203785A1, “METHOD AND PROCESS FOR PRODUCING YOUTHFUL-APPEARING, SMALL-PORED, AND SMOOTH SKIN” (priority 2002, published 2009)
At least one compound was matched to its structure with a doubt left.

What was measured:
acne vulgaris = assay: topical retinoic acid plus laser-induced explosion of carbon particles on the skin of a patient with acne vulgaris (FIG. 4); type: in vivo; conditions: combination with exploding carbon particles (Q-switched laser); after first six months of treatment; one patient
high dermis = assay: applicant's studies of topical retinoic acid on the skin; conditions: 0.05% to 1% retinoic acid in a topical formulation

CC1=C(/C=C/C(C)=C/C=C/C(C)=C/C(=O)O)C(C)(C)CCC1 [retinoic acid]
process of acne formation (acne vulgaris): completely prevented
severity of lesions and scars (acne vulgaris): substantially reduced in severity
new blood vessel formation in the high dermis (high dermis): new blood vessel formation
new collagen formation in the high dermis (high dermis): inducing new collagen
